# Reference: the supplement of paper PMC3334620
# The full ranking holds about 33,000 sequences; the median of “E-score (-0.5 to 0.5)” is about -0.015, and the highest 2% start at about 0.3. Some of the results follow.
# Target: T1, Abf1 (UniProt P14164)
# T1 sequence: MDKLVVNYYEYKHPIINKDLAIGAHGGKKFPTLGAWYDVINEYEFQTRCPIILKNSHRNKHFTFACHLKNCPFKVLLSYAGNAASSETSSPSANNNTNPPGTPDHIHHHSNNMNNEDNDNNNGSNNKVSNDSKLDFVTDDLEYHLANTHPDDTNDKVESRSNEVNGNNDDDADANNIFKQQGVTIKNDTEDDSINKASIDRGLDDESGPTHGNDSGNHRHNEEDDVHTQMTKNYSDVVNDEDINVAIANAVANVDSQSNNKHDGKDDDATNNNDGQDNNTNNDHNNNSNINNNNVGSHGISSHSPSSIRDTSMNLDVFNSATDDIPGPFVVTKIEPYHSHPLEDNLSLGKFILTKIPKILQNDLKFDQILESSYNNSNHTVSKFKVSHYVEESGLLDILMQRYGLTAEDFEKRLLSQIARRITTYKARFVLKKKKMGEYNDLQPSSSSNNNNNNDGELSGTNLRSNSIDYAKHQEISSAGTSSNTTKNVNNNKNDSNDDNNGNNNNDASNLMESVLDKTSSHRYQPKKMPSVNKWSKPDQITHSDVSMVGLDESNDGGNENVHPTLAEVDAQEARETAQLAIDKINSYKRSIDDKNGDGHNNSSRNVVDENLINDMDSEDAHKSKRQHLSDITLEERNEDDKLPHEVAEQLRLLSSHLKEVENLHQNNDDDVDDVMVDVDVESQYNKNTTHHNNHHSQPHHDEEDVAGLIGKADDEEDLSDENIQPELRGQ
# Experiment: PBM E-score (8-mer binding enrichment) (E-score (-0.5 to 0.5)); higher = stronger / more preferred TF binding
# Details: protein concentration: 200 nM; construct: GST-full length
# How it was run: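 Masliner-normalised scans of fluorescent anti-GST signal were the basis for scoring. That signal came from GST-tagged yeast transcription factors applied at about 100-200 nM to double-stranded universal all-10-mer Agilent arrays on fresh or once-stripped slides. Each ungapped eight-base word, pooled with its reverse complement, received an E-score from the Universal PBM Analysis Suite.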
row,Sequence,PBM E-score
1,CGTTATAC,0.303
2,CAGTAATG,-0.0287
3,CTTAGTCC,0.0832
4,TCACTAGA,0.287
5,TACCGCTA,-0.0972
6,TAGCCGAA,0.0055
7,CGTGTGGA,0.0371
8,AGACACTC,-0.117
9,AGAACCGC,-0.00112
10,AAAAACTA,0.167
11,GAGACACA,-0.0393
12,ACTTCAAC,-0.0269
13,GTCGCCGA,0.12
14,GCAGTAAC,-0.187
15,AACCCGTC,0.0672
16,ATACTCTA,0.0906
17,GTGGATCA,0.227
18,AGGCGTTG,0.132
19,ACACCTCC,-0.245
20,ACCCTCGC,-0.287
21,CATGAGAG,-0.0275
22,ATACAATA,0.154
23,GCGGATGA,0.202
24,CTGATGAC,0.203
25,ACCAATCT,-0.188

# Look-ups from the entries so far:
# Entry of AGAACCGC under PBM E-score: -0.00112
# Entry of GTCGCCGA under PBM E-score: 0.12
# Entry of TACCGCTA under PBM E-score: -0.0972

# Continuation:

row,Sequence,PBM E-score
1,CAGATTCC,-0.104
2,CCGTTAGC,-0.0533
3,CGCTAATC,0.0487
4,AAGCAACT,0.171
5,CTATCGCC,-0.0597
6,AACCTCCC,-0.0721
7,CGGTGATA,0.334
8,GGAATTTA,0.0465
9,AAAAAACG,0.239
10,AAATCGTG,0.192
11,AGTAGTTG,0.067
12,CTGACCTC,-0.108
13,TACCGCGA,-0.111
14,GTGAAAGA,0.179
15,GCCGGACC,-0.201
16,CTTGTATC,-0.147
17,CACCTCAC,0.11
18,ATCAGAAG,-0.0266
19,AGGCAGCG,-0.119
20,CAAGGAAG,-0.0169
21,GAGATACC,0.0737
22,GTAGGGCA,-0.0239
23,ATCCCTTG,-0.13
24,TGAGTGAA,-0.189
25,GATGTCCA,0.0505

row,Sequence,PBM E-score
1,ACGGCGCA,0.0786
2,CGAAAGAC,0.0276
3,GGTGTAAC,0.224
4,ATCCCACA,-0.108
5,ACGGGGTC,-0.0266
6,ATTCAGCC,-0.0917
7,CTTTTACA,0.188
8,ACATGAGG,-0.246
9,CATTAGTC,-0.14
10,ACCGTTGG,-0.0996
11,AGGGTCTA,-0.119
12,GAATATGA,0.0519
13,GCAGGCCA,-0.144
14,CCCACGGC,0.175
15,ATGCACGG,0.258
16,CCCAAACG,0.0235
17,GAAAGAGC,-0.153
18,CGCTTCAG,-0.147
19,AAATGACG,0.187
20,CGAGGTAG,-0.135
21,AACCTGAG,-0.0884
22,CTCAACGC,0.0795
23,GCACCTCA,0.141
24,CATCTTAA,0.0501
25,AAGGCGGA,-0.254

row,Sequence,PBM E-score
1,CGTCGACG,0.16
2,GTAGTTGA,0.124
3,AAGGGAGG,-0.307
4,AGTGCATC,0.0918
5,ACAACCCA,-0.0167
6,GTCTACTA,0.11
7,ACAACGGC,0.218
8,ATGATGAG,0.141
9,CAGCACGC,0.0115
10,CGCACCCA,-0.272
11,ACGTTATA,0.26
12,CCAGGATA,0.126
13,CATGCGGA,-0.155
14,ACACACAG,-0.0168
15,AGTGCACC,-0.127
16,CAAATGAA,-0.155
17,TCCCCCCA,-0.448
18,AAAACCCC,-0.137
19,TCTACACA,-0.0425
20,CCCGCAGA,-0.203
21,GCCTTGAA,-0.166
22,AATCCTAG,-0.0394
23,ATGCGATA,0.158
24,GCGGTTTA,-0.161
25,ATGCGAGG,0.00416

row,Sequence,PBM E-score
1,CAAGGGCC,-0.282
2,AAGTTCCA,-0.0476
3,ATAGTTTG,0.0679
4,AGCCACGC,-0.0379
5,AAATTGCC,0.0392
6,CCGCGACC,-0.0179
7,TAAAGTTA,0.11
8,GAGGCTCC,-0.183
9,AAACGTTC,0.0878
10,AGCTAGAA,0.0282
11,AGCTGAGA,-0.142
12,GGACGACC,0.0608
13,CAGCAACG,0.231
14,CCCGGTCG,-0.112
15,ATGGCTCC,-0.00305
16,AGCAGCGG,-0.0956
17,ACCGCTCT,-0.234
18,CTGATCTA,-0.106
19,CTACCCCA,-0.155
20,GTGCTGTA,0.12
21,GAGACCGC,-0.175
22,CGCTTGTC,0.0052
23,CCAGCATC,-0.074
24,AATCGTAA,0.145
25,CATGAATC,0.0674

row,Sequence,PBM E-score
1,CCAATGGC,-0.202
2,AGTCAGCC,-0.181
3,CCGAGTCA,-0.117
4,TACCCGGA,-0.014
5,GATAAAAC,0.246
6,CAATCATA,0.166
7,TAAGGGCA,-0.0518
8,ATCGGTAG,-0.00682
9,ACCAGGGC,-0.229
10,AACACTGC,-0.155
11,ACTACGGA,0.105
12,ATTCAAGC,0.0602
13,TCTGGTCA,0.0314
14,CACTAGGC,-0.201
15,AGGAGTGG,-0.171
16,CACCAAAA,0.138
17,ATAAAGAA,0.178
18,AAAAGGTA,0.106
19,ACTCCGAA,-0.00935
20,CATGTAAA,0.102
21,ACTATTAG,0.0644
22,TAGTCATA,0.0833
23,GGAAGACA,-0.0867
24,AATACCAT,0.0929
25,AAATGAGT,0.0345

row,Sequence,PBM E-score
1,ACGAAAGT,0.146
2,GCAAGCGC,-0.201
3,GGACACCC,-0.172
4,AAGCGAGC,-0.0257
5,TGGACCCA,-0.0266
6,AACCAATC,-0.0716
7,ATACATAG,0.0748
8,CATGACAG,0.0583
9,ATAAGAGA,0.0975
10,GTGAAATA,0.196
11,ATAAAACC,-0.0345
12,CTACGCGA,-0.0125
13,AACTTCAA,0.00511
14,CAGCTTAA,-0.00327
15,GAACCTGA,-0.24
16,CATCGCAA,0.0111
17,ACACGACT,0.0619
18,GGACAACA,0.144
19,ACCTTCGA,-0.0559
20,TGCGCCCA,-0.0332
21,TGACAAAA,0.304
22,AGATACAT,0.145
23,TCACGGGA,0.263
24,CCCGTCAG,-0.173
25,AACTGTGA,0.0999

row,Sequence,PBM E-score
1,GGAAAGTA,0.102
2,ACCCCTCA,-0.291
3,CACGACTG,0.222
4,CCTACGGC,0.226
5,TCGCGGCA,0.239
6,GATCATAA,0.215
7,AGTCCTAC,-0.047
8,AAACATAC,-0.0274
9,CATTAATC,0.212
10,AGGACCAT,-0.0408
11,GGAGGTCA,0.0571
12,ATGCGATC,0.0608
13,AGGTTGCG,-0.158
14,TACGGTCA,0.196
15,CGAGCTAC,-0.0169
16,ACCGTTGC,0.0812
17,CCCAAATA,0.00823
18,GAAGACCC,-0.253
19,TAAATGGA,0.0566
20,ATGTCAAG,-0.0386
21,AAATAGGC,0.00611
22,AGTATGGG,-0.169
23,CTAATAGC,0.137
24,CATAAGAA,0.202
25,GGAGCCTA,-0.064

# Quoted at random: 5 entries already listed.
row,Sequence,PBM E-score
11,GGAGGTCA,0.0571
6,GATCATAA,0.215
21,AAATAGGC,0.00611
10,AGGACCAT,-0.0408
25,GGAGCCTA,-0.064

# The list continues:

row,Sequence,PBM E-score
1,AAGTGCGC,-0.0287
2,GTATAAAC,0.22
3,GAGGCGCA,-0.152
4,ATGAAAGG,-0.082
5,GCGAACCA,-0.00083
6,CCACGCAG,-0.0309
7,CGACTCCC,0.00827
8,ACCATACT,-0.0562
9,TAAGAAGA,0.219
10,ATACCGAT,-0.0929
11,AAAGATGC,0.141
12,AATTATAA,0.139
13,TACCTTGA,0.12
14,AACAGCTT,-0.13
15,ATCGCGCC,-0.0162
16,GGAGTAAA,0.17
17,CGGAGCGA,0.174
18,AACCATAT,0.0432
19,GGTTAGGA,-0.107
